Tested on: experimental uveitis in rabbits
Settings: inhibition of PGE2 accumulation in the aqueous humour

## C[C@@H]1C[C@H]2[C@@H]3CCC4=CC(=O)C=C[C@]4(C)[C@@]3(F)[C@@H](O)C[C@]2(C)[C@@]1(O)C(=O)COP(=O)(O)O [dexamethasone sodium phosphate]
  concentrations exerting significant anti-inflammatory effects: ≥ 0.001%
